The supplement of paper PMC8728848
The other results are listed elsewhere or left out.

What was measured:
Experiment in all cases: glycan array binding signal (z-score within array); higher = stronger binding
Details in all cases: glycan notation: IUPAC condensed, linker removed
[1] = biological target: Fuc(a1-2)Gal(b1-4)GlcNAc(b1-3)Gal(b1-4)GlcNAc(b1-3)Gal(b1-4)GlcNAc
How it was run: (§1)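 The Consortium for Functional Glycomics database supplied 3228 glycan arrays, of which those lacking an available protein sequence were dropped. The binding signal, a within-array Z-score, was averaged across arrays of the same protein sequence and across linkers. Negative scores can be read as non-binding.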

[2] = biological target: Fuc(a1-2)Gal(b1-4)GlcNAc(b1-3)GalNAc
How it was run: as §1

[3] = biological target: Fuc(a1-2)Gal(b1-4)GlcNAc(b1-3)[Fuc(a1-2)Gal(b1-4)GlcNAc(b1-6)]GalNAc
How it was run: as §1

[4] = biological target: Fuc(a1-2)Gal(b1-4)GlcNAc(b1-3)[Fuc(a1-3)[Gal(b1-4)]GlcNAc(b1-6)]Gal(b1-4)Glc
How it was run: as §1

[5] = biological target: Fuc(a1-2)Gal(b1-4)GlcNAc(b1-6)GalNAc
How it was run: as §1

[6] = biological target: Fuc(a1-2)Gal(b1-4)GlcNAc6S
How it was run: as §1

[7] = biological target: Fuc(a1-2)Gal(b1-4)[Fuc(a1-3)]GlcNAc
How it was run: as §1

[8] = biological target: Fuc(a1-2)Gal(b1-4)[Fuc(a1-3)]GlcNAc(b1-2)Man(a1-3)[Fuc(a1-2)Gal(b1-4)[Fuc(a1-3)]GlcNAc(b1-2)Man(a1-6)]Man(b1-4)GlcNAc(b1-4)[Fuc(a1-6)]GlcNAc
How it was run: as §1

[9] = biological target: Fuc(a1-2)Gal(b1-4)[Fuc(a1-3)]GlcNAc(b1-2)[Fuc(a1-2)Gal(b1-4)[Fuc(a1-3)]GlcNAc(b1-4)]Man(a1-3)[Fuc(a1-2)Gal(b1-4)[Fuc(a1-3)]GlcNAc(b1-2)Man(a1-6)]Man(b1-4)GlcNAc(b1-4)GlcNAc
How it was run: as §1

[10] = biological target: Fuc(a1-2)Gal(b1-4)[Fuc(a1-3)]GlcNAc(b1-3)Gal(b1-4)[Fuc(a1-3)]GlcNAc
How it was run: as §1

[11] = biological target: Fuc(a1-2)Gal(b1-4)[Fuc(a1-3)]GlcNAc(b1-3)Gal(b1-4)[Fuc(a1-3)]GlcNAc(b1-3)Gal(b1-4)[Fuc(a1-3)]GlcNAc
How it was run: as §1

[12] = biological target: Fuc(a1-2)Gal(b1-4)[Fuc(a1-3)]GlcNAc(b1-3)GalNAc
How it was run: as §1

[13] = biological target: Fuc(a1-2)Gal(b1-4)[Fuc(a1-3)]GlcNAc(b1-3)[Neu5Ac(a2-6)Gal(b1-4)GlcNAc(b1-6)]Gal(b1-4)Glc
How it was run: as §1

[14] = biological target: Fuc(a1-2)Gal3S(b1-4)GlcNAc
How it was run: as §1

[15] = biological target: Fuc(a1-2)Gal6S(b1-3)GlcNAc
How it was run: as §1

[16] = biological target: Fuc(a1-2)Gal6S(b1-3)GlcNAc6S
How it was run: as §1

[17] = biological target: Fuc(a1-2)Gal6S(b1-4)Glc
How it was run: as §1

[18] = biological target: Fuc(a1-2)Gal6S(b1-4)Glc6S
How it was run: as §1

[19] = biological target: Fuc(a1-2)[Gal(a1-3)]Gal
How it was run: as §1

[20] = biological target: Fuc(a1-2)[Gal(a1-3)]Gal(b1-3)GalNAc
How it was run: as §1

[21] = biological target: Fuc(a1-2)[Gal(a1-3)]Gal(b1-3)GalNAc(b1-3)Gal(a1-4)Gal(b1-4)Glc
How it was run: as §1

[22] = biological target: Fuc(a1-2)[Gal(a1-3)]Gal(b1-3)GlcNAc
How it was run: as §1

[23] = biological target: Fuc(a1-2)[Gal(a1-3)]Gal(b1-3)GlcNAc(b1-2)Man(a1-3)[Fuc(a1-2)[Gal(a1-3)]Gal(b1-3)GlcNAc(b1-2)Man(a1-6)]Man(b1-4)GlcNAc(b1-4)GlcNAc
How it was run: as §1

[24] = biological target: Fuc(a1-2)[Gal(a1-3)]Gal(b1-3)GlcNAc(b1-2)Man(a1-3)[Fuc(a1-2)[Gal(a1-3)]Gal(b1-3)GlcNAc(b1-2)Man(a1-6)]Man(b1-4)GlcNAc(b1-4)[Fuc(a1-6)]GlcNAc
How it was run: as §1

[25] = biological target: Fuc(a1-2)[Gal(a1-3)]Gal(b1-3)GlcNAc(b1-3)GalNAc
How it was run: as §1

[26] = biological target: Fuc(a1-2)[Gal(a1-3)]Gal(b1-3)GlcNAc(b1-6)GalNAc
How it was run: as §1

[27] = biological target: Fuc(a1-2)[Gal(a1-3)]Gal(b1-4)Glc
How it was run: as §1

[28] = biological target: Fuc(a1-2)[Gal(a1-3)]Gal(b1-4)GlcNAc
How it was run: as §1

[29] = biological target: Fuc(a1-2)[Gal(a1-3)]Gal(b1-4)GlcNAc(b1-2)Man
How it was run: as §1

[30] = biological target: Fuc(a1-2)[Gal(a1-3)]Gal(b1-4)GlcNAc(b1-2)Man(a1-3)[Fuc(a1-2)[Gal(a1-3)]Gal(b1-4)GlcNAc(b1-2)Man(a1-6)]Man(b1-4)GlcNAc(b1-4)GlcNAc
How it was run: as §1

B1: Mnn9-2N3 (Aspergillus fumigatus) (protein)
chain: MAVARRMRRTNPITLLLAAILAIGFFIFVLSPSTTSASPVKAGSASSSSTSQQRREDNAAENPLSPPTKPFFKSQPVRHDGQQAPPPVVQYNLNQLSSTSTSAANGERILILTPMARFVPEYWDNVVKLTYPHELISIGFIIPKNKEGNAALAALEAAIAKTQSGPIDKRFASISILRQDFEPPLQSQDEKERHKISNQKARRESMSRARNSLLFTTLGPATAWVLWLDADIVETPPTLIQDLTAHDHPVLVPNCYQRYYNSEKKKMDVRPYDYNSWIDSSTAQSMAAEMGPDEILLEGYAEMPTYRTLMAHLADTANPNPKKVIELDGVGGTALMVKAEVHRDGAMFPAFPFYHLVETEGFAKMAKRLGYSVYGLPDYFVSRNFFFFFFFFFFG
**Q.** B1 was tested. Which “glycan array binding signal (z-score)” value [1] did it give?
**A.** 0.442

**Q.** What about the “glycan array binding signal (z-score)” value [2] of the same binder?
**A.** -1

**Q.** And the “glycan array binding signal (z-score)” value [3]?
**A.** -0.335

**Q.** What about the “glycan array binding signal (z-score)” value [4] of the same binder?
**A.** 0.664

**Q.** And the “glycan array binding signal (z-score)” value [5]?
**A.** -0.408

**Q.** What about the “glycan array binding signal (z-score)” value [6] of the same binder?
**A.** 1.62

**Q.** What about the “glycan array binding signal (z-score)” value [7] of the same binder?
**A.** 1.63

**Q.** What about the “glycan array binding signal (z-score)” value [8] of the same binder?
**A.** 3.21

**Q.** What about the “glycan array binding signal (z-score)” value [9] of the same binder?
**A.** 0.515

**Q.** What about the “glycan array binding signal (z-score)” value [10] of the same binder?
**A.** 0.007

**Q.** What about the “glycan array binding signal (z-score)” value [11] of the same binder?
**A.** -0.263

**Q.** And the “glycan array binding signal (z-score)” value [12]?
**A.** -0.191

**Q.** What about the “glycan array binding signal (z-score)” value [13] of the same binder?
**A.** -0.511

**Q.** What about the “glycan array binding signal (z-score)” value [14] of the same binder?
**A.** 1.83

**Q.** What about the “glycan array binding signal (z-score)” value [15] of the same binder?
**A.** 0.514

**Q.** What about the “glycan array binding signal (z-score)” value [16] of the same binder?
**A.** -0.594

**Q.** What about the “glycan array binding signal (z-score)” value [17] of the same binder?
**A.** -0.467

**Q.** And the “glycan array binding signal (z-score)” value [18]?
**A.** 0.019

**Q.** What about the “glycan array binding signal (z-score)” value [19] of the same binder?
**A.** -0.061

**Q.** What about the “glycan array binding signal (z-score)” value [20] of the same binder?
**A.** 0.042

**Q.** And the “glycan array binding signal (z-score)” value [21]?
**A.** -0.502

**Q.** And the “glycan array binding signal (z-score)” value [22]?
**A.** 1.21

**Q.** What about the “glycan array binding signal (z-score)” value [23] of the same binder?
**A.** 0.477

**Q.** And the “glycan array binding signal (z-score)” value [24]?
**A.** -0.24

**Q.** What about the “glycan array binding signal (z-score)” value [25] of the same binder?
**A.** 0.104

**Q.** What about the “glycan array binding signal (z-score)” value [26] of the same binder?
**A.** -0.364

**Q.** And the “glycan array binding signal (z-score)” value [27]?
**A.** -0.824

**Q.** What about the “glycan array binding signal (z-score)” value [28] of the same binder?
**A.** -1.13

**Q.** What about the “glycan array binding signal (z-score)” value [29] of the same binder?
**A.** -0.156

**Q.** And the “glycan array binding signal (z-score)” value [30]?
**A.** -1.33
